This passage reports binding results from article PMC7552054.

Sequences of proteins named here, by UniProt entry; tags and fusion partners are left off. Residues count along the entry.
UniProt Q9HWC9: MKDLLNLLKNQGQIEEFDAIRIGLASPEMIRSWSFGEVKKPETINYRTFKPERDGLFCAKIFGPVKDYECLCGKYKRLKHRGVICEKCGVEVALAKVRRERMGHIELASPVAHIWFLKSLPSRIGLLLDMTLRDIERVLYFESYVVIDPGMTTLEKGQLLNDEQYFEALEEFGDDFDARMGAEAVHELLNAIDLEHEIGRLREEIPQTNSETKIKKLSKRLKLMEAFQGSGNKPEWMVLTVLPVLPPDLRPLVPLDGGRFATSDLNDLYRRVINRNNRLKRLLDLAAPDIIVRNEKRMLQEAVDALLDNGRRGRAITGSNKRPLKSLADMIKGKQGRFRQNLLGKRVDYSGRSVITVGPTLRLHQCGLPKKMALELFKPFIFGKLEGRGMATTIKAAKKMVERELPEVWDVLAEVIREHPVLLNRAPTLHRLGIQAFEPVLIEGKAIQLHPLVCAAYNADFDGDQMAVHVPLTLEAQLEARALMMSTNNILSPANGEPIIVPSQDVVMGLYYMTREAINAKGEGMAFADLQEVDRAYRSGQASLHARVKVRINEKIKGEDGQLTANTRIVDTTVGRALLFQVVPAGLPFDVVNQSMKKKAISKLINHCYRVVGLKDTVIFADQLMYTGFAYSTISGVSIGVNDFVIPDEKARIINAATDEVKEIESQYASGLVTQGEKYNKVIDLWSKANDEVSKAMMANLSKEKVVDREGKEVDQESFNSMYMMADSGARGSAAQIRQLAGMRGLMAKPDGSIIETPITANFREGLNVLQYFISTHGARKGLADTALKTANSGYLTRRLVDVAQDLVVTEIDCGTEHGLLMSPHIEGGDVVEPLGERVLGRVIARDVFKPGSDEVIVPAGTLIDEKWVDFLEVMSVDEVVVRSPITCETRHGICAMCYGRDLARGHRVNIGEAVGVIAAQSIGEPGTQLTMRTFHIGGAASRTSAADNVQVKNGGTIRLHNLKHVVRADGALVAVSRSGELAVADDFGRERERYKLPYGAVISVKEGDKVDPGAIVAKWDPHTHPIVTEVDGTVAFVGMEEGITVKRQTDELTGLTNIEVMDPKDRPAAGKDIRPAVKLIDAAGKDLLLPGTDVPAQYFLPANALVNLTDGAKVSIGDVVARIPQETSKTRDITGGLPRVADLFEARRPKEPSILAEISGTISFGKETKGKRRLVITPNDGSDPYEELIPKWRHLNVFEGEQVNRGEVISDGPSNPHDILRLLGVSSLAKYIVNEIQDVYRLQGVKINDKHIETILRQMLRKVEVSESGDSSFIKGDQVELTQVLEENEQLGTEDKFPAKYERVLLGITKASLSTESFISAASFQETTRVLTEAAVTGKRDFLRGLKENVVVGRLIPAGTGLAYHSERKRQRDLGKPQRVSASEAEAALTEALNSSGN
UniProt O52760, residues 1-244: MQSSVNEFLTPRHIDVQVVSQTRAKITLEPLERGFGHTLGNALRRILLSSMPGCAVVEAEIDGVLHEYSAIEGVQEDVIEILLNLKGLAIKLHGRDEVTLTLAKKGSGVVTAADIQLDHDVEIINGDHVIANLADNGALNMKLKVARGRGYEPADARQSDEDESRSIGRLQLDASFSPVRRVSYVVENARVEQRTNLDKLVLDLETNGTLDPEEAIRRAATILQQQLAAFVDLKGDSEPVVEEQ

The target in the assay is P. aeruginosa RNA polymerase β' subunit with a C-terminal Protein A tag (RpoC-Protein A) (P. aeruginosa PAO1) (UniProt Q9HWC9). The assay can be described thus: pull-down.

No constants are given. Whether binding was seen depends on the method and setting. In cells and extracts the contact can be indirect. Some entries that bind do so weakly or less than the wild type.

With “N-terminal fragment of the α RNAP subunit (α NTD), cleavage product (from UniProt O52760 1-244) (domain or fragment)”, the binding result is given as “binds”.
